Results are given in words; binding and its absence hold for the method and conditions named. Binding seen in cells or lysates may run through a third protein. These calls come from enrichment with a bait or labelling near it, and not all partners need be listed.
Biological target: streptavidin-binding protein and flag-tagged MAT IIα (methionine adenosyltransferase IIα) (human) (UniProt P31153)
Test: affinity purification with mass spectrometry; tandem affinity purification of streptavidin-binding protein and flag-tagged MAT IIα from a HEK293-derived stable cell line cultured upon folate deprivation; partners identified by MS

By UniProt entry, the sequences of proteins in these tests, tags left out.
UniProt P31153: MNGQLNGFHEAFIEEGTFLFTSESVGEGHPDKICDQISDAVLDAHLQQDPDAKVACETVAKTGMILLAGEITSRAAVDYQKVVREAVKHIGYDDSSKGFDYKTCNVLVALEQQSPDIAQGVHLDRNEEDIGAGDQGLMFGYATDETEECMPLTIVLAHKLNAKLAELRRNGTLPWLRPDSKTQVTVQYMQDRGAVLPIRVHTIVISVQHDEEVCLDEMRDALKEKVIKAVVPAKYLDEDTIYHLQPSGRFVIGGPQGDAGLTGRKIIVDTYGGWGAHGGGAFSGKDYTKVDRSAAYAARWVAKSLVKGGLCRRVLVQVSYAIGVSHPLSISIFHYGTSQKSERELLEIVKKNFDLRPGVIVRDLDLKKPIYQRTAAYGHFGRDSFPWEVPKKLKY
UniProt Q5T4S7: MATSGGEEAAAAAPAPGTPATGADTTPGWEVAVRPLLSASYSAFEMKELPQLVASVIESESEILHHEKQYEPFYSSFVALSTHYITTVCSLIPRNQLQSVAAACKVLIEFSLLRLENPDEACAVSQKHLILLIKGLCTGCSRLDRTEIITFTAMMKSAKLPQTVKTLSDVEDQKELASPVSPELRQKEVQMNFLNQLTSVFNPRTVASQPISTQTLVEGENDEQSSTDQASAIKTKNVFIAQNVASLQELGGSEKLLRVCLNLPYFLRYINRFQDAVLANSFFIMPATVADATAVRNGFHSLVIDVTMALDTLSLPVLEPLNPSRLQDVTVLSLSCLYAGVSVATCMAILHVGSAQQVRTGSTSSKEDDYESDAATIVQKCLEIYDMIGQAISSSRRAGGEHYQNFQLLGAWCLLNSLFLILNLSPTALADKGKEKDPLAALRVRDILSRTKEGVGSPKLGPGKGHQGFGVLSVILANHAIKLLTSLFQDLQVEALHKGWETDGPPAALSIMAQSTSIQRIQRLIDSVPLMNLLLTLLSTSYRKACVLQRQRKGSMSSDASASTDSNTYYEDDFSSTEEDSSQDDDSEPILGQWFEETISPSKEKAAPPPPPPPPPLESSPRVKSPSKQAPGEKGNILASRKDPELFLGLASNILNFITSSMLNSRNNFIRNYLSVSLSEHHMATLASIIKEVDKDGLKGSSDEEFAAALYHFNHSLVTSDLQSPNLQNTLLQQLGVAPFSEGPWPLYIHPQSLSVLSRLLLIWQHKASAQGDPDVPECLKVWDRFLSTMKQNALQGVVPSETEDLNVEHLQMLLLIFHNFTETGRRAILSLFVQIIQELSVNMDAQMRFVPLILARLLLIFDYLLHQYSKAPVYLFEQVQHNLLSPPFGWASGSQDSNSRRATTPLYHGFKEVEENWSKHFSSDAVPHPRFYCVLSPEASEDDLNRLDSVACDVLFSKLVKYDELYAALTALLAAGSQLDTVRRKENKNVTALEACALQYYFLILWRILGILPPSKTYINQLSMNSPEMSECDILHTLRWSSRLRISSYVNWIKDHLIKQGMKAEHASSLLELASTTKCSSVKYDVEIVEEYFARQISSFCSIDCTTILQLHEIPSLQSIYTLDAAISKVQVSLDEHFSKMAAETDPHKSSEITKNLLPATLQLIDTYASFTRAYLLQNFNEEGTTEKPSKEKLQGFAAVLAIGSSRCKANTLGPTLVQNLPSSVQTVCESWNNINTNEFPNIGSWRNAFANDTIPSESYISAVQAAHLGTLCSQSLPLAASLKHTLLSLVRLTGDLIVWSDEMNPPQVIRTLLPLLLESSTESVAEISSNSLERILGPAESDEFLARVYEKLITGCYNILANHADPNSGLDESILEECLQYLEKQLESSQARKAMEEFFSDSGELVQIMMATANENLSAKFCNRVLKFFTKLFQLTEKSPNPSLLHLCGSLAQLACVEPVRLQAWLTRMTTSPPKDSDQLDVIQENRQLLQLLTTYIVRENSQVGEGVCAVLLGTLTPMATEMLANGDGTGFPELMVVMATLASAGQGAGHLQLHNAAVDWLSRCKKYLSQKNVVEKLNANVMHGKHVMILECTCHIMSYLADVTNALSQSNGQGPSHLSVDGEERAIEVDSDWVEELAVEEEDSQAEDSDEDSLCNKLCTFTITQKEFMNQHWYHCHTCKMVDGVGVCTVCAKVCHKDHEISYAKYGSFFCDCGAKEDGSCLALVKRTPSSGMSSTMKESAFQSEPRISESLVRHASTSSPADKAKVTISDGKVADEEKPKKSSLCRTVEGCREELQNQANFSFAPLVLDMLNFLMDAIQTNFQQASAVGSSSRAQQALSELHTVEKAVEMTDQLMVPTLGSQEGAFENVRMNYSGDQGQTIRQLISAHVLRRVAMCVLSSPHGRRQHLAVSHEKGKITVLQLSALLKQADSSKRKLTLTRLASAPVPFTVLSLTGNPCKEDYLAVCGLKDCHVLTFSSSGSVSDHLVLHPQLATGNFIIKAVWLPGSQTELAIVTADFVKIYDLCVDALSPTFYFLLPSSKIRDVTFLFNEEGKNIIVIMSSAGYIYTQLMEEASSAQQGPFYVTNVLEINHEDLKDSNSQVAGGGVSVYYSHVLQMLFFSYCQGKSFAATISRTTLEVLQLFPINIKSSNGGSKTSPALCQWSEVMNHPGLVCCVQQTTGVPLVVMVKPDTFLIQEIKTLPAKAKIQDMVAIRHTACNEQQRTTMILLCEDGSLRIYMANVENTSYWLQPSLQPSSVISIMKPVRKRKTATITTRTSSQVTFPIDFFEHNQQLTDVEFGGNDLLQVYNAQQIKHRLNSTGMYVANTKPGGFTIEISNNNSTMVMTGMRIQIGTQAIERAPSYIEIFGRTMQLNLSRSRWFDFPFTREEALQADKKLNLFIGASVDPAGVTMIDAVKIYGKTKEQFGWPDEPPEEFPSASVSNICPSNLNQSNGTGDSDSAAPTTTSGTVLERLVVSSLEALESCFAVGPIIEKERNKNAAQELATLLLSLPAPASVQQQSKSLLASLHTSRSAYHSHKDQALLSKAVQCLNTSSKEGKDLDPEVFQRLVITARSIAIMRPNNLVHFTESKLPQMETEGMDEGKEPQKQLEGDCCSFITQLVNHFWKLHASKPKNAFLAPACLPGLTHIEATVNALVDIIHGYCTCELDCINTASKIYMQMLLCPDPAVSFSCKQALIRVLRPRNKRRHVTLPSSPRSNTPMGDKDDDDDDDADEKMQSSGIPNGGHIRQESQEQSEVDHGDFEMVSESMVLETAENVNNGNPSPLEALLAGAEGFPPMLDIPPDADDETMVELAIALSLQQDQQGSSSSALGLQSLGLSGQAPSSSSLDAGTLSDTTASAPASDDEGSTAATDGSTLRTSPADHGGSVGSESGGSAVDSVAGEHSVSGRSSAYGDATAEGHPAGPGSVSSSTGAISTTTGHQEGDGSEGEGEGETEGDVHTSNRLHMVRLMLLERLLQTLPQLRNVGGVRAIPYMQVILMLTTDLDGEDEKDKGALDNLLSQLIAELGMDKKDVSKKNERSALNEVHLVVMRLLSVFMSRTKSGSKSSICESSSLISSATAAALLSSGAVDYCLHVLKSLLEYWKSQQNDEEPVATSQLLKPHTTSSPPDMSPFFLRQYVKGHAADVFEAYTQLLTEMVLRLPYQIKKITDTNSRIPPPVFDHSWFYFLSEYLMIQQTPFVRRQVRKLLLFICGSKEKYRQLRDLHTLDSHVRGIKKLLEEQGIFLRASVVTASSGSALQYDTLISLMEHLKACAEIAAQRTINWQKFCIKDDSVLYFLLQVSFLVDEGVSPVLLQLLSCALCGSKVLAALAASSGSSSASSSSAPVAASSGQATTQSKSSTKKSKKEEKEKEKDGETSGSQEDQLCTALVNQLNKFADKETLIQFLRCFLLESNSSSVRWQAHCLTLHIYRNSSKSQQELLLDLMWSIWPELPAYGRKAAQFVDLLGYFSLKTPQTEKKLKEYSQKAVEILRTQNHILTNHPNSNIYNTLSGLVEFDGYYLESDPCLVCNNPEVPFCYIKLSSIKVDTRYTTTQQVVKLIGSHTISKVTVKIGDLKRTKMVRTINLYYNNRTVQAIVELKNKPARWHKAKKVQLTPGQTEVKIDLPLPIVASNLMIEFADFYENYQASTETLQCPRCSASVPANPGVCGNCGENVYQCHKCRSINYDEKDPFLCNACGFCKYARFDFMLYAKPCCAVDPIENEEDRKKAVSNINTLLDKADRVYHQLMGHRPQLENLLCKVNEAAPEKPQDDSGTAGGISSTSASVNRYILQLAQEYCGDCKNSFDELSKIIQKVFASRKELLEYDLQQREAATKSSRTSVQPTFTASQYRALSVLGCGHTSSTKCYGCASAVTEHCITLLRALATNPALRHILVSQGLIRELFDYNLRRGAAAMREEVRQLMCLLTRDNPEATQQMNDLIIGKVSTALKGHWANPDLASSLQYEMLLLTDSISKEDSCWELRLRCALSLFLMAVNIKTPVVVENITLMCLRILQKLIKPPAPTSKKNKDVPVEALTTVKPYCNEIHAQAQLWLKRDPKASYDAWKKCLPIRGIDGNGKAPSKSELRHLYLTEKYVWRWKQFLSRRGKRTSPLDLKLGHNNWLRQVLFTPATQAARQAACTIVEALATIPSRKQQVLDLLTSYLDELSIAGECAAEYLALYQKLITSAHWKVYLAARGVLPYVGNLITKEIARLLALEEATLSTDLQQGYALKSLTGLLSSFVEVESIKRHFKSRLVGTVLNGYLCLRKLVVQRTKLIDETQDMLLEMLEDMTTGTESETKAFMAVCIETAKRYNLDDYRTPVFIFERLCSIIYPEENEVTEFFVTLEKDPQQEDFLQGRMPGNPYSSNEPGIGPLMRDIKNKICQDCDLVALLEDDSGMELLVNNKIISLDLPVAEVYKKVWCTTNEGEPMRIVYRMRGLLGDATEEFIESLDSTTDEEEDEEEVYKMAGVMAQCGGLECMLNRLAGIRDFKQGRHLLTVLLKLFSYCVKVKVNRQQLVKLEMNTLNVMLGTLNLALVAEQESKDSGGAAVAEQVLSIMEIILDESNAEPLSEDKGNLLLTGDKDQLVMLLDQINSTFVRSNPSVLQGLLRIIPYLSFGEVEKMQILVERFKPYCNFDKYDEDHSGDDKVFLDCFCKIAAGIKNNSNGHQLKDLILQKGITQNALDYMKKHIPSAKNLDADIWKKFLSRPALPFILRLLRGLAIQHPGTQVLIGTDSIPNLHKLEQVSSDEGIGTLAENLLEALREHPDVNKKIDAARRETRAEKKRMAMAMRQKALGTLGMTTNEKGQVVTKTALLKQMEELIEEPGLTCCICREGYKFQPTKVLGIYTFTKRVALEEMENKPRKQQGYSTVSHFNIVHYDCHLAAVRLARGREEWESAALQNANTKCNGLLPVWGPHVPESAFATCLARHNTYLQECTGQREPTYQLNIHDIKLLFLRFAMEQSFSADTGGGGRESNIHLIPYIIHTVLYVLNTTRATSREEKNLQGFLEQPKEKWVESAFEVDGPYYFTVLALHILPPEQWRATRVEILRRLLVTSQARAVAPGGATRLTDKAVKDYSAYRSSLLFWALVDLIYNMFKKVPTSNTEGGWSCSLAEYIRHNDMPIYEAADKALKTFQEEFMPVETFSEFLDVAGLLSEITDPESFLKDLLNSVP

binding: binds
Substance: UBR4 (ubiquitin protein ligase E3 component n-recognin 4) (from UniProt Q5T4S7 1-5183) (enzyme)

— PMC4421817
